Source: PubChem BioAssay AID652259 (Drosophila RNAi Screening Center, 2013)
In all, the deposit lists about 22,000 reagents; this is an unselected part of those with a known target gene and a result. Over the whole deposit, 233 (1.1%) were called active. 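Light values are raw, unnormalised plate reads; the ratio scores behind the reporter calls were not deposited.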 The record does not give: the amount of reagent, the time to read-out, the dose of the treatment.

- Assay: 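Identify new Wingless signalling regulators in fly cells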 (primary screen)
- Cells: Drosophila clone 8 imaginal disc epithelial cells
- Reagent: long dsRNA against Drosophila genes
- Treatment: pathway stimulated by co-transfected Wingless expression plasmid
- Measurement: 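Firefly luciferase from a tcf-site Wingless reporter, measured alongside co-transfected Renilla luciferase that tracks transfection; pathway stimulated by a Wingless plasmid; the firefly-to-Renilla ratio is not deposited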
- Reading the numbers: firefly reporter light: higher = more Wg reporter light, before normalisation; Renilla control light: higher = more transfected or surviving cells
- Hit rule: 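a knock-down is a candidate when at least two out of four statistical tests show it departing from its plate mean; one test alone signals a weak candidate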
- Calls: active = candidate regulator (raises or lowers reporter); inactive = not a candidate

target gene | amplicon | reporter change call, replicate 1 | firefly reporter light, replicate 1 | firefly reporter light, replicate 2 | Renilla control light, replicate 1 | Renilla control light, replicate 2 | Outcome
nemy (GeneID 36395) | DRSC05357 | – | 20688 | – | 17265 | – | inactive
nemy (GeneID 36395) | DRSC07262 | – | 21373 | – | 7360 | – | inactive
SecS (GeneID 40681) | DRSC12222 | – | 11915 | – | 2726 | – | inactive
Spn28F (GeneID 49807) | DRSC03615 | – | 2454 | 6613 | 992 | 3091 | inactive
Nak (GeneID 35154) | DRSC03379 | – | 5741 | – | 1920 | – | inactive
Ars2 (GeneID 35539) | DRSC04893 | – | 16960 | – | 5239 | – | inactive
CG3546 (GeneID 31389) | DRSC18308 | – | 10637 | – | 10133 | – | inactive
CG12708 (GeneID 32502) | DRSC19490 | – | 24589 | – | 10566 | – | inactive
dx (GeneID 31589) | DRSC18767 | – | 15074 | – | 6512 | – | inactive
CG32986 (GeneID 34208) | DRSC02509 | – | 4268 | 6327 | 1382 | 2886 | inactive
RFeSP (GeneID 44390) | DRSC00702 | – | 2786 | 10727 | 1434 | 2403 | inactive
lncRNA:CR43302 (GeneID 12798065) | DRSC12668 | – | 4699 | – | 1752 | – | inactive
Tk (GeneID 41456) | DRSC14954 | – | 22150 | – | 6176 | – | inactive
Tk (GeneID 41456) | DRSC21972 | – | 5.68e5 | 6.25e5 | 3.51e5 | 3.26e5 | inactive
wdp (GeneID 37548) | DRSC04367 | – | 7184 | – | 2417 | – | inactive
CG17974 (GeneID 37441) | DRSC04299 | – | 3769 | 8689 | 1370 | 4099 | inactive
TfIIEalpha (GeneID 39313) | DRSC11303 | – | 4357 | – | 1810 | – | inactive
l(1)G0020 (GeneID 31811) | DRSC18198 | – | 27158 | – | 13176 | – | inactive
PsGEF (GeneID 31224) | DRSC18596 | – | 27223 | – | 22787 | – | inactive
PsGEF (GeneID 31224) | DRSC18600 | – | 14731 | – | 14715 | – | inactive
PsGEF (GeneID 31224) | DRSC18601 | – | 14131 | – | 6416 | – | inactive
Tim17a1 (GeneID 41500) | DRSC14184 | – | 18424 | – | 5920 | – | inactive
Vrp1 (GeneID 37521) | DRSC04148 | – | 9811 | – | 2952 | – | inactive
zuc (GeneID 34609) | DRSC02160 | – | 14178 | – | 4363 | – | inactive
CG16896 (GeneID 37977) | DRSC04284 | – | 9737 | – | 3497 | – | inactive
CG5359 (GeneID 41222) | DRSC15780 | – | 10325 | – | 1843 | – | inactive
CG2972 (GeneID 31943) | DRSC18250 | – | 1737 | 5749 | 656 | 2005 | inactive
CG33506 (GeneID 3346177) | DRSC05981 | – | 15608 | – | 4802 | – | inactive
Tehao (GeneID 34761) | DRSC03449 | – | 2103 | 8477 | 916 | 2637 | inactive

Just “firefly reporter light, replicate 1”, for 12 of the entries above:
lncRNA:CR43302 (GeneID 12798065) [DRSC12668]	4699
Tk (GeneID 41456) [DRSC14954]	22150
Tk (GeneID 41456) [DRSC21972]	5.68e5
wdp (GeneID 37548) [DRSC04367]	7184
CG17974 (GeneID 37441) [DRSC04299]	3769
TfIIEalpha (GeneID 39313) [DRSC11303]	4357
l(1)G0020 (GeneID 31811) [DRSC18198]	27158
PsGEF (GeneID 31224) [DRSC18596]	27223
PsGEF (GeneID 31224) [DRSC18600]	14731
PsGEF (GeneID 31224) [DRSC18601]	14131
Tim17a1 (GeneID 41500) [DRSC14184]	18424
Vrp1 (GeneID 37521) [DRSC04148]	9811

Continued:
target gene | amplicon | reporter change call, replicate 1 | firefly reporter light, replicate 1 | firefly reporter light, replicate 2 | Renilla control light, replicate 1 | Renilla control light, replicate 2 | Outcome
Aladin (GeneID 31881) | DRSC18121 | – | 5549 | 7048 | 1088 | 3052 | inactive
CG9896 (GeneID 37652) | DRSC03962 | – | 21011 | – | 12257 | – | inactive
CG9896 (GeneID 37652) | DRSC04594 | – | 2985 | 6956 | 838 | 2443 | inactive
Septin5 (GeneID 43990) | DRSC06843 | – | 10035 | – | 2777 | – | inactive
stmA (GeneID 35865) | DRSC05120 | – | 26963 | – | 13160 | – | inactive
stmA (GeneID 35865) | DRSC07593 | – | 12816 | – | 3289 | – | inactive
stmA (GeneID 35865) | DRSC22179 | – | 4.94e5 | 5.30e5 | 2.02e5 | 1.85e5 | inactive
tsu (GeneID 35924) | DRSC07265 | – | 1981 | 8593 | 960 | 4868 | inactive
CG16813 (GeneID 34724) | DRSC02520 | – | 3328 | 9316 | 1355 | 4284 | inactive
CG11951 (GeneID 43463) | DRSC14442 | – | 7287 | – | 2676 | – | inactive
CG6495 (GeneID 34486) | DRSC01993 | – | 6193 | – | 2017 | – | inactive
br (GeneID 44505) | DRSC17691 | – | 3576 | – | 1504 | – | inactive
br (GeneID 44505) | DRSC17789 | – | 22802 | – | 16736 | – | inactive
br (GeneID 44505) | DRSC18743 | – | 32268 | 6.82e5 | 10902 | 3.34e5 | inactive
br (GeneID 44505) | DRSC18744 | – | 24685 | – | 9388 | – | inactive
CG17190 (GeneID 42386) | DRSC15184 | – | 16028 | – | 3452 | – | inactive
bif (GeneID 32119) | DRSC18901 | – | 3381 | – | 966 | – | inactive
bif (GeneID 32119) | DRSC20313 | – | 1675 | 4465 | 753 | 2242 | inactive
Obp56d (GeneID 37266) | DRSC06064 | – | 5936 | – | 2288 | – | inactive
CG9084 (GeneID 36172) | DRSC07335 | – | 8538 | – | 2290 | – | inactive
CG2818 (GeneID 33597) | DRSC00540 | – | 12448 | – | 5499 | – | inactive
dos (GeneID 38321) | DRSC07992 | – | 1915 | – | 586 | – | inactive
dos (GeneID 38321) | DRSC08713 | – | 4470 | – | 1930 | – | inactive
CG7299 (GeneID 34468) | DRSC03043 | – | 2436 | 10530 | 1385 | 4667 | inactive
CG31418 (GeneID 42084) | DRSC21780 | – | 3.73e5 | 4.17e5 | 1.69e5 | 1.52e5 | inactive
Ppt2 (GeneID 34564) | DRSC02786 | – | 9421 | – | 2922 | – | inactive
Prosbeta4R1 (GeneID 33449) | DRSC00502 | – | 3435 | 5654 | 1260 | 2027 | inactive
CCDC53 (GeneID 34097) | DRSC03056 | – | 2150 | 4171 | 902 | 2325 | inactive
Ucp4C (GeneID 33832) | DRSC03132 | – | 4506 | 5756 | 1222 | 2648 | inactive
raskol (GeneID 32754) | DRSC19202 | – | 2682 | – | 1376 | – | inactive
raskol (GeneID 32754) | DRSC19731 | – | 23879 | – | 10053 | – | inactive
raskol (GeneID 32754) | DRSC19964 | – | 22565 | – | 7881 | – | inactive
raskol (GeneID 32754) | DRSC19967 | Wg reporter activity raised | 19691 | – | 2246 | – | active
raskol (GeneID 32754) | DRSC21788 | – | 3.12e5 | 4.61e5 | 1.67e5 | 1.82e5 | inactive
Obp47a (GeneID 36162) | DRSC06255 | – | 3648 | 8896 | 1008 | 3584 | inactive
CG14069 (GeneID 34510) | DRSC02372 | – | 2393 | 8694 | 1181 | 4375 | inactive
Phf5a (GeneID 33909) | DRSC03261 | – | 3604 | 8209 | 887 | 1211 | inactive
CG10839 (GeneID 34944) | DRSC01965 | – | 3292 | 4780 | 913 | 2505 | inactive
alpha-Man-Ia (GeneID 31957) | DRSC17642 | – | 3416 | – | 907 | – | inactive
alpha-Man-Ia (GeneID 31957) | DRSC18162 | – | 14422 | – | 7285 | – | inactive
alpha-Man-Ia (GeneID 31957) | DRSC18163 | – | 14531 | – | 7356 | – | inactive
alpha-Man-Ia (GeneID 31957) | DRSC18735 | – | 14716 | – | 7780 | – | inactive
brv3 (GeneID 31246) | DRSC18657 | – | 16434 | – | 11993 | – | inactive
CG13185 (GeneID 36268) | DRSC06310 | – | 6848 | – | 2372 | – | inactive
